Record: PubChem BioAssay AID1259254 (NCATS, 2017)
This is one part, drawn at random, of about 59,000 reagents tested. Over the whole deposit, about 1,550 (2.6%) got an active call. 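G2 share is only a proxy for re-replication; each gene was hit by three separate siRNAs, and active genes were retested.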 A number with no mark means an inactive call. The numbers tell different reagents against one gene apart. Not all columns of the deposit are shown. Not given: the amount of reagent.

- Assay: 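Genome-wide screen for genes that prevent DNA re-replication in cancer cells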 (primary screen)
- Cell system: human HCT116 colorectal cancer cells
- Reagents: single siRNA against human genes
- Timing: 3 days
- Detection: 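Nuclei stained with Hoechst and imaged; cell-cycle phase assigned by DNA content; G2 share scaled per plate, non-targeting siRNA 0%, GMNN siRNA 100%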
- Scale: G2 robust z-score and G2 cells, % of GMNN control: higher = more G2 cells, more excess DNA replication
- Hit rule: 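An siRNA counts as active if its G2 robust z-score lies at least 5 MADs above the screen median; here such calls match roughly 38% of GMNN control or more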

{"target gene": "CAP2", "reagent": 1, "G2 robust z-score": -0.292, "G2 cells, % of GMNN control": 0.915}
{"target gene": "CAP2", "reagent": 2, "G2 robust z-score": -1.03, "G2 cells, % of GMNN control": -4.26}
{"target gene": "CAP2", "reagent": 3, "G2 robust z-score": 3.19, "G2 cells, % of GMNN control": 25.4}
{"target gene": "BRF1", "reagent": 1, "G2 robust z-score": 3.28, "G2 cells, % of GMNN control": 26.1}
{"target gene": "BRF1", "reagent": 2, "G2 robust z-score": 0.148, "G2 cells, % of GMNN control": 4.01}
{"target gene": "BRF1", "reagent": 3, "G2 robust z-score": -0.801, "G2 cells, % of GMNN control": -2.67}
{"target gene": "TTC21A", "reagent": 1, "G2 robust z-score": 0.585, "G2 cells, % of GMNN control": 7.09}
{"target gene": "TTC21A", "reagent": 2, "G2 robust z-score": -0.783, "G2 cells, % of GMNN control": -2.54}
{"target gene": "TTC21A", "reagent": 3, "G2 robust z-score": -0.71, "G2 cells, % of GMNN control": -2.03}
{"target gene": "PPP2R3C", "reagent": 1, "G2 robust z-score": -0.429, "G2 cells, % of GMNN control": -0.0486}
{"target gene": "PPP2R3C", "reagent": 2, "G2 robust z-score": 1.16, "G2 cells, % of GMNN control": 11.1}
{"target gene": "PPP2R3C", "reagent": 3, "G2 robust z-score": 0.551, "G2 cells, % of GMNN control": 6.85}
{"target gene": "ACTL7A", "reagent": 1, "G2 robust z-score": -0.6, "G2 cells, % of GMNN control": -1.25}
{"target gene": "ACTL7A", "reagent": 2, "G2 robust z-score": -1.19, "G2 cells, % of GMNN control": -5.4}
{"target gene": "ACTL7A", "reagent": 3, "G2 robust z-score": -0.914, "G2 cells, % of GMNN control": -3.46}
{"target gene": "ZBED1P1", "reagent": 1, "G2 robust z-score": -0.975, "G2 cells, % of GMNN control": -3.89}
{"target gene": "ZBED1P1", "reagent": 2, "G2 robust z-score": 1.88, "G2 cells, % of GMNN control": 16.2}
{"target gene": "ZBED1P1", "reagent": 3, "G2 robust z-score": -1.27, "G2 cells, % of GMNN control": -5.96}

Entries above whose target name starts with B or b (3):
{"target gene": "BRF1", "reagent": 1, "G2 robust z-score": 3.28, "G2 cells, % of GMNN control": 26.1}
{"target gene": "BRF1", "reagent": 2, "G2 robust z-score": 0.148, "G2 cells, % of GMNN control": 4.01}
{"target gene": "BRF1", "reagent": 3, "G2 robust z-score": -0.801, "G2 cells, % of GMNN control": -2.67}
